Settings in all cases: yeast three-hybrid, YBZ-1, SC-Leu-His + 0.5 mM 3-AT, 4 days
Experiment [1] addresses T1, PUM1 PUF domain R1-QFR R2-VFQ R7-NPG S863Q + R864F + Q867R + N899V + Y900F + S1079N + N1080P + E1083G (UniProt Q14671).
T1 sequence: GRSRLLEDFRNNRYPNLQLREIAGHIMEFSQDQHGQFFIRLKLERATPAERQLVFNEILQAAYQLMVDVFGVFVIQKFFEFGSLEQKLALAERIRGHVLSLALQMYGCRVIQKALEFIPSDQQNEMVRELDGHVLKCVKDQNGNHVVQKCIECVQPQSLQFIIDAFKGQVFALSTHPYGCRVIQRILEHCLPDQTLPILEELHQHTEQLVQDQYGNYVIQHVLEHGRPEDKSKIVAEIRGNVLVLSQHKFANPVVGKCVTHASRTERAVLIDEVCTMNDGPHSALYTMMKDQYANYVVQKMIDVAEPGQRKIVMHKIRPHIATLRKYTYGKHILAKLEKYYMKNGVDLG

Experiment [2] has as its target T2, PUM1 PUF domain R3-THE R4-TFR C935T + R936H + Q939E + N971T + H972F + Q975R (UniProt Q14671).
T2 sequence: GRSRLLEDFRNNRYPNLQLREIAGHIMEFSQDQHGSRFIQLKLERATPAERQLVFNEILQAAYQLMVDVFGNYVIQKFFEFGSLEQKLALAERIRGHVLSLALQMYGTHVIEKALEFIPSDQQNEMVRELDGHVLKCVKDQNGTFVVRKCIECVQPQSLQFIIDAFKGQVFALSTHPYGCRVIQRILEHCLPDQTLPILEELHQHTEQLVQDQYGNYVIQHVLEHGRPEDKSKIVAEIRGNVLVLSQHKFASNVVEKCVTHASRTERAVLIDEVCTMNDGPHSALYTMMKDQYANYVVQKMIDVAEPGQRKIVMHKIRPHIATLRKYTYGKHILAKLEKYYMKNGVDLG

Experiment [3] concerns the target T3, PUM1 PUF domain R5-PHQ R6-SWD C1007P + R1008H + N1043S + Y1044W + Q1047D (UniProt Q14671).
T3 sequence: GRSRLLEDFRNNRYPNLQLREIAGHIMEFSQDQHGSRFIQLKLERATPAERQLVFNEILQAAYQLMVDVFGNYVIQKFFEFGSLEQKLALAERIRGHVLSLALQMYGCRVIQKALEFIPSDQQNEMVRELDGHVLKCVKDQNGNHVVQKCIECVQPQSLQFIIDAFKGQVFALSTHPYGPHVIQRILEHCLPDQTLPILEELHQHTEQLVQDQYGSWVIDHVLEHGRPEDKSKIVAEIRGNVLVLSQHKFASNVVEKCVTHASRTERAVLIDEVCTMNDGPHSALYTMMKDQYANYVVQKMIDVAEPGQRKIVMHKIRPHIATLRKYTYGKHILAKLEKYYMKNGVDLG

Experiment [4] concerns the target T4, PUM1 PUF domain R3-THE R4-TFR R7-NPG C935T + R936H + Q939E + N971T + H972F + Q975R + S1079N + N1080P + E1083G (UniProt Q14671).
T4 sequence: T2 sequence with S252N, N253P, E256G

In experiment [5] the target is T5, PUM1 PUF domain R6-SWD R7-NPG N1043S + Y1044W + Q1047D + S1079N + N1080P + E1083G (Homo sapiens) (UniProt Q14671).
T5 sequence: T3 sequence with P180C, H181R, S252N, N253P, E256G

In experiment [6] the target is T6, PUM1 PUF domain R3-THE R4-TFR R7-NPG C935T + R936H + Q939E + N971T + H972F + Q975R + S1079N + N1080P + E1083G (Homo sapiens) (UniProt Q14671).
T6 sequence: T2 sequence with S252N, N253P, E256G

Experiment [7] has as its target T7, PUM1 PUF domain R6-SWD R7-NPG N1043S + Y1044W + Q1047D + S1079N + N1080P + E1083G (UniProt Q14671).
T7 sequence: T3 sequence with P180C, H181R, S252N, N253P, E256G

Changes are numbered by the printed parent chain. The list shows a part of the results. For part of these data: At the low end of the ranking the order means little. For part of these data: Construct or isoform of the protein are uncertain.

For the sequence “GGCUAGAACUAGUGGAUCCCCCGGCGCCCGGCGGCUCGAGCCCGGGUAAGUGCUCCUCGUCUGCAUGCCGCCGGGCGCCAUGCCUGCAGGUCGACUCUAGAAAACAUG”, the results for the binding signal (log2 enrichment (interaction score)) in experiment [1] and in experiment [2] were -5.84 and -6.97, respectively.
In the same order, the values of “GGCUAGAACUAGUGGAUCCCCCGGCGCCCGGCGGCUCGAGCCCGGGUAAGUUAAAUUAGUCUGCAUGCCGCCGGGCGCCAUGCCUGCAGGUCGACUCUAGAAAACAUG” are below -6.65 and -6.06.
As to “GGCUAGAACUAGUGGAUCCCCCGGCGCCCGGCGGCUCGAGCCCGGGUAAGCUUAAAUUGUCUGCAUGCCGCCGGGCGCCAUGCCUGCAGGUCGACUCUAGAAAACAUG”, the values for the binding signal (log2 enrichment (interaction score)) in experiment [1], in experiment [2] and in experiment [3] were -6.7, -7.58 and below -7.67, respectively.
For the sequence “GGCUAGAACUAGUGGAUCCCCCGGCGCCCGGCGGCUCGAGCCCGGGUAAGUUGAGGUUGUCUGCAUGCCGCCGGGCGCCAUGCCUGCAGGUCGACUCUAGAAAACAUG”, the binding signal (log2 enrichment (interaction score)) in experiment [1] was -5.27; in experiment [2] it was -8.58; in experiment [4], -2.52; in experiment [3], -8.4; in experiment [5], -0.92.
Regarding “GGCUAGAACUAGUGGAUCCCCCGGCGCCCGGCGGCUCGAGCCCGGGUAAGCCGACAUUGUCUGCAUGCCGCCGGGCGCCAUGCCUGCAGGUCGACUCUAGAAAACAUG”, the binding signal (log2 enrichment (interaction score)) in experiment [1] is below -6.16; in experiment [2] it was -7.59; in experiment [4], -2.35; in experiment [3] it was below -7.77.
Turning to “GGCUAGAACUAGUGGAUCCCCCGGCGCCCGGCGGCUCGAGCCCGGGUAAGUGGAAGUAGUCUGCAUGCCGCCGGGCGCCAUGCCUGCAGGUCGACUCUAGAAAACAUG”, the binding signal (log2 enrichment (interaction score)) in experiment [1] was -6.19; in experiment [2] it was -6.66; in experiment [6] it was -1.56; in experiment [3], -4.7; in experiment [5], -0.74.
With “GGCUAGAACUAGUGGAUCCCCCGGCGCCCGGCGGCUCGAGCCCGGGUAAGUGCAAAACGUCUGCAUGCCGCCGGGCGCCAUGCCUGCAGGUCGACUCUAGAAAACAUG”, the values for the binding signal (log2 enrichment (interaction score)) in experiment [1], in experiment [2] and in experiment [3] were -6.46, -5.83 and -8.48, respectively.
“GGCUAGAACUAGUGGAUCCCCCGGCGCCCGGCGGCUCGAGCCCGGGUAAGUGUUAGCAGUCUGCAUGCCGCCGGGCGCCAUGCCUGCAGGUCGACUCUAGAAAACAUG”: the values for the binding signal (log2 enrichment (interaction score)) in experiment [1] and in experiment [2] were -5.13 and -7.79, respectively.
As to “GGCUAGAACUAGUGGAUCCCCCGGCGCCCGGCGGCUCGAGCCCGGGUAAGAGUAAGUCGUCUGCAUGCCGCCGGGCGCCAUGCCUGCAGGUCGACUCUAGAAAACAUG”, the results for the binding signal (log2 enrichment (interaction score)) in experiment [1], in experiment [2] and in experiment [3] were -6.35, -6.77 and -7.67, respectively.
For the sequence “GGCUAGAACUAGUGGAUCCCCCGGCGCCCGGCGGCUCGAGCCCGGGUAAGUAUAUGGGGUCUGCAUGCCGCCGGGCGCCAUGCCUGCAGGUCGACUCUAGAAAACAUG”, the binding signal (log2 enrichment (interaction score)) in experiment [1] is -6.08; in experiment [2], -7.11; in experiment [6], -1.37.
For the sequence “GGCUAGAACUAGUGGAUCCCCCGGCGCCCGGCGGCUCGAGCCCGGGUAAGUGGCAUAAGUCUGCAUGCCGCCGGGCGCCAUGCCUGCAGGUCGACUCUAGAAAACAUG”, the binding signal (log2 enrichment (interaction score)) in experiment [1] is -4.3; in experiment [2], -5.7; in experiment [6], below -1.82; in experiment [3], -7.84; in experiment [7], -2.02.
On to “GGCUAGAACUAGUGGAUCCCCCGGCGCCCGGCGGCUCGAGCCCGGGUAAGUUUUCGUCGUCUGCAUGCCGCCGGGCGCCAUGCCUGCAGGUCGACUCUAGAAAACAUG”, for which the results for the binding signal (log2 enrichment (interaction score)) in experiment [1], in experiment [2] and in experiment [4] were below -6.17, -7.51 and -3.53, respectively.
With “GGCUAGAACUAGUGGAUCCCCCGGCGCCCGGCGGCUCGAGCCCGGGUAAGGCUACGACGUCUGCAUGCCGCCGGGCGCCAUGCCUGCAGGUCGACUCUAGAAAACAUG”, the binding signal (log2 enrichment (interaction score)) is -5.67 in experiment [1] and -7.52 in experiment [2].
For “GGCUAGAACUAGUGGAUCCCCCGGCGCCCGGCGGCUCGAGCCCGGGUAAGUGCAAGUCGUCUGCAUGCCGCCGGGCGCCAUGCCUGCAGGUCGACUCUAGAAAACAUG”, the binding signal (log2 enrichment (interaction score)) in experiment [1] was -5.44; in experiment [2], -7.64; in experiment [4], below -2.32; in experiment [3], -6.92.
Turning to “GGCUAGAACUAGUGGAUCCCCCGGCGCCCGGCGGCUCGAGCCCGGGUAAGCUCAAGUGGUCUGCAUGCCGCCGGGCGCCAUGCCUGCAGGUCGACUCUAGAAAACAUG”, the binding signal (log2 enrichment (interaction score)) is -4.92 in experiment [1] and -7.09 in experiment [2].

The values are drawn from article PMC8384837.
